Source: patent publication US12364755B2, “Method for obtaining globally activated monocytes” (Transimmune AG, priority 2014, dated 2025)
For at least one compound, name, drawing or mass did not settle the structure.

Legend:
GILZ = GILZ mRNA expression in CD11c+ MoDC (real-time PCR); format: cell-based, human; conditions: 24 hr, relative to MoDC receiving no dexamethasone (FIG. 10C)
Experimental: The tubes emitted UVA light ranging from 320 to 400 nm. The UVA irradiance (power, W/m^2) was measured using a photodiode. […] Non-adherent cells (purity: 66.0±4.5% CD3^+) removed during plastic adherence will now be generally referred to as lymphocytes. […] RNA yield and purity were assessed using a NanoDrop ND-1000 spectrophotometer. cDNA was obtained using the High Capacity cDNA Reverse Transcription Kit (Applied Biosystems) in a 96-well thcrmocycicr (MJ Research PTC-200). TaqMan real-time PCR was used to detect transcripts of GILZ, CD80, and CD86. Primers and probes were obtained as pre-designed and validated Taqman Gene Expression Assays (Applied Biosystems). SYBR green real-time PCR (Applied Biosystems) was used to detect transcripts of IL-12, IL-10, IL-6, TNF-alpha, and TGF-β. Primers were designed to span intron junctions using Primer3Plus. Primer melting curves were obtained to confirm a single product. HPRT-1 and GAPDH were used as reference genes. Samples were run in triplicate on a 7500 Real Time PCR System (Applied Biosystems). The delta-delta C(t) method was used to calculate the fold change.

MoDC = assay: Cytokine quantification in culture supernatants after LPS stimulation; format: cell-based, human; conditions: 24 hr after LPS stimulation, multiplex immunoassay
Experimental: Non-adherent cells (purity: 66.0±4.5% CD3^+) removed during plastic adherence will now be generally referred to as lymphocytes. Lymphocytes were treated with 8-MOP (100 ng/mL) and UVA (1 J/cm^2), washed with PBS, and co-cultured in complete media at 37° C. and 5% CO2 with either PUVA-treated or untreated-MoDC in a ratio of 5 or 10 lymphocytes to 1 MoDC. MoDC treated for 24 hr with 100 nM dexamethasone (Sigma) served as the positive control group. After 24 hr, cells were harvested and MoDC were re-purified.
Culture supernatants were analyzed in a multiplex format utilizing magnetic beads to IL-6, IL-8, IL-10, IL-12p70, TNF-a, RANTES, MCP-1, and MIP-1β (BioRad Laboratories). For siRNA experiments, supernatants were analyzed with enzyme-linked immunosorbent assay (ELISA) kits for IL-10 (R&D Systems) and IL-12p70 (Enzo Life Science). All samples and standards were run in duplicate and analyzed using the LUMINEX 200 (LUMINEX), or the BioTek EL800 (BioTek).

For C[C@@H]1C[C@H]2[C@@H]3CCC4=CC(=O)C=C[C@]4(C)[C@@]3(F)[C@@H](O)C[C@]2(C)[C@@]1(O)C(=O)CO [dexamethasone], the “GILZ mRNA expression, dose titration” value (GILZ) was “up-regulate GILZ” and the “production of IL-10” value (MoDC) was “increased production of IL-10”.
